Hit rate of the full screen: of about 580,000 compounds, about 6,100 (1.1%) were called active. This list was built around the results that the source calls inconclusive (neither active nor inactive); the mix of calls is not that of the screen. The call rests on the fitted dose curve; in most records, active means well fitted inhibition curve with a large enough effect; inconclusive means small, poorly fitted or top-dose-only effect, or another doubt; inactive means no such curve, though single readings can be large or run the other way. A potency beside an inconclusive call is a rough fit, not a confirmed value.
What follows are compounds tested against Polyunsaturated fatty acid lipoxygenase ALOX12 (Homo sapiens) (UniProt P18054) (assay: Primary qHTS assay for inhibitors of human arachidonate 12S-lipoxygenase (ALOX12): Round 2). Settings: purified 12hLO, xylenol orange hydroperoxide absorbance; activity change, negative = inhibition: at 108 µM (top of the series) unless noted.
How it was run: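 Hydroperoxide product was detected by ferrous iron/xylenol orange as the 573 to 405 nm absorbance ratio. Arachidonic acid at 40 uM (final) was turned over for 30 min at room temperature by 150 nM human 12hLO, pH 7.0 Hepes buffer, after 15 min compound preincubation.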
On the % scale 0 is the no-effect control and ±100 the full control effect; potency means the concentration at half of the fitted maximal effect.

By UniProt entry, the sequences of proteins in these tests, tags left out. Where a name states a change or a piece, a line headed by the entry shows the natural chain unless it says otherwise.
UniProt P18054: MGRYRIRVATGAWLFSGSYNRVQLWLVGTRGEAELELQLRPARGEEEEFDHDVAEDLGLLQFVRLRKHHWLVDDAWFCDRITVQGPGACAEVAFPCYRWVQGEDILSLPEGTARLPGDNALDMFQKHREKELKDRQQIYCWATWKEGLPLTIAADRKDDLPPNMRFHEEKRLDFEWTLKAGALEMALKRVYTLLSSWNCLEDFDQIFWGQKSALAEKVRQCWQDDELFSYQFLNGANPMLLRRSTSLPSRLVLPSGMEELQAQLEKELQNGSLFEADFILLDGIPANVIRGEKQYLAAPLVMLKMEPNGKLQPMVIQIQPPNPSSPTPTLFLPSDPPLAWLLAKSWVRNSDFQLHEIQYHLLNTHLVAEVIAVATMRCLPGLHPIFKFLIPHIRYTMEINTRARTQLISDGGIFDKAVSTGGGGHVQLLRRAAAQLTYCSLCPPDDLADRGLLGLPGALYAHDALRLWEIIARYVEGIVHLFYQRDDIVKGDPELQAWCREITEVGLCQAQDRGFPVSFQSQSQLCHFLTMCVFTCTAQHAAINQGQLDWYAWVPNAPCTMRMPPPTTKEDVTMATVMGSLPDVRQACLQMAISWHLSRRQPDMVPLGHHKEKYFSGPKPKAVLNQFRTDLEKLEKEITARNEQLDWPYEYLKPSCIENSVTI

Structure (SMILES)	Potency	activity change, negative = inhibition
CN(c1ccccc1)S(=O)(=O)c1cccc(NC(=O)C2=NN(c3ccccc3)C(=O)CC2)c1	inactive	
O=[N+]([O-])c1cc(Cl)cc2cccnc12	inactive	
COc1ccc2nc(Nc3ncc4c(n3)CC(C)CC4=O)nc(C)c2c1 (centres undefined)	inactive	
CCN(CC)C(=O)CC1COc2ccc(C(=O)NCCOC)cc2N1C (centres undefined)	inactive	
COc1ccc(-c2c(-c3ccc4ccccc4c3)[nH]c3c2c(=O)[nH]c(=O)n3C)cc1	inconclusive: 100 µM [inhibitor, partial curve, poor fit]	
COc1cccc(C(=O)Nc2ccc(Oc3cccc(C(F)(F)F)c3)nc2)c1	inconclusive: 112 µM [inhibitor, partial curve, poor fit]	
O=C(O)C(c1c[nH]c2cc(F)ccc12)N1CCN(C(c2ccccc2)c2ccccc2)CC1 (centres undefined)	active: 17.8 µM	
c1ccc(Nc2nc(-c3ccoc3)nc3ccccc23)cc1	inconclusive: 5.62 µM [inhibitor, full curve, poor fit]	
COc1ccc2c(c1)Cc1sc(NC(=O)c3ccccc3C)nc1-2	inactive	
O=C(NCc1ccc(N2CCCC2=O)cc1)c1cnccn1	inconclusive: 126 µM [inhibitor, partial curve, poor fit]	
Cc1ccc(C)c(N2CCN(c3nc4ccccc4c(=O)n3-c3ccc(Cl)cc3)CC2)c1	inconclusive: 44.7 µM [inhibitor, partial curve, poor fit]	
CSc1oc(-c2ccco2)nc1S(=O)(=O)c1ccc(F)cc1	inconclusive: 126 µM [inhibitor, single point]	
C=CCn1c(Cc2cccc3ccccc23)n[nH]c1=S	inactive	
COc1cccc(CNC(=O)c2ccc(-c3nc(CS(=O)c4ccccc4)c(C)o3)cc2)c1 (centres undefined)	inactive	
Cc1ccc(S(=O)(=O)N/N=C\c2ccc([N+](=O)[O-])o2)cc1	inconclusive: 11.2 µM [inhibitor, full curve]	
COc1ccc(Cl)cc1NC(=O)[C@H]1C[C@@H]2CCCN2[C@]12C(=O)Nc1c(Cl)cc(C)cc12	inconclusive: 70.8 µM [inhibitor, single point]	
O=C1N[C@@H](Cc2ccccc2)C(=O)N2CCC[C@@H]12	inactive	
COC(=O)COC(=O)c1ccc(-n2nnnc2SC)cc1	inactive	
CCCN1CCN(C(=O)c2c(C)oc3c2CN(Cc2cccc(F)c2)CC3)CC1	inconclusive: 11.2 µM [inhibitor, full curve]	
Cc1nc(-c2ccc(F)cc2)n(Cc2cccc(F)c2)c(=O)c1CCO	inconclusive: 39.8 µM [inhibitor, partial curve]	
CCOC(=O)N1CCN(CC(O)COc2ccccc2C(C)CC)CC1 (centres undefined)	inconclusive: 50.1 µM [inhibitor, partial curve, poor fit]	
COc1ccc2cc(Br)ccc2c1CC(=O)NC(C)C	inactive	
COc1ccc(-c2nc3ccc(C)cn3c2Cc2ccsc2)cc1OC	inconclusive: 50.1 µM [inhibitor, partial curve, poor fit]	

Structure (SMILES)	Potency	activity change, negative = inhibition
CCOC(=O)N1CCC(N2CCCC(CO)(Cc3cccc(Cl)c3)C2)CC1 (centres undefined)	inconclusive: 89.1 µM [inhibitor, partial curve, poor fit]	
Clc1ccc(Cn2c(CN3CCCC3)nc3ccccc32)cc1		inactive: 3.54% [at 22.9 µM]
Cc1cc(C(=O)NCc2cccs2)c2c(C3CCNC3)noc2n1 (centres undefined)	inconclusive: 25.1 µM [inhibitor, full curve, poor fit]	
COC(=O)c1cccc(NC(=O)Cn2cnc3c2c(=O)n(C)c(=O)n3C)c1	inconclusive: 126 µM [inhibitor, single point]	
O=C(CCc1nnc2ccc(N3CCCCC3)nn12)N1CCCC1	inactive	
Cc1c(C(=O)N2CCCC2)oc2c1-c1[nH]ncc1CC2	inconclusive: 31.6 µM [inhibitor, partial curve, poor fit]	
C/C(=N\NC(=O)c1ccn(C)n1)c1cccc(NC(=O)c2ccc(C)s2)c1	inactive	
CC(Oc1ccccc1Cl)C(=O)/C=C/N(C)C (centres undefined)	inconclusive: 44.7 µM [inhibitor, partial curve, poor fit]	
CC(C)OC(=O)CSc1nnc(-c2ccccn2)n1C	inconclusive: 158 µM [inhibitor, single point]	
CCN(CC(=O)NCc1ccc(F)cc1)CC(O)COCc1cccc(OC)c1 (centres undefined)	inconclusive: 10 µM [inhibitor, partial curve, poor fit]	
CCN(CC)CCNC(=S)Nc1ccc2nc(N3CCN(C)CC3)cc(C)c2c1	inconclusive: 28.2 µM [inhibitor, partial curve, poor fit]	
Fc1ccc(C2=CC(c3c(F)cccc3Cl)n3nnnc3N2)cc1 (centres undefined)		inconclusive: -35.5% [inhibitor]
Oc1ccc2ccccc2c1SSc1c(O)ccc2ccccc12	active: 1.72 µM	
CCc1ccc(S(=O)(=O)/N=C2\C=C(NS(=O)(=O)c3ccccc3)C(=O)c3ccccc32)cc1	inconclusive: 35.5 µM [inhibitor, partial curve, poor fit]	
CCCN(CCC)CCNC(=O)Cn1c(C)c(C(=O)OCC)c(C)c1-c1ccccc1	inconclusive: 28.2 µM [inhibitor, partial curve, poor fit]	
CCc1ccc(CNC(=O)Cn2ccc3cc(S(=O)(=O)N4CCCCCC4)ccc32)cc1	inactive	
COc1ccc2nc(C3CCCCC3)c3c(c2c1)CCC3	inconclusive: 112 µM [inhibitor, single point]	
Cc1ccc(N(CC(=O)NC(C)c2ccccc2)S(=O)(=O)c2c(C)n[nH]c2C)cc1 (centres undefined)	inactive	
COc1ccc2c(C)c(CC(=O)NCc3ccc4c(c3)OCO4)c(=O)oc2c1	inconclusive: 7.08 µM [inhibitor, full curve, poor fit]	
COc1cccc(-n2cnnc2SC(C)C(=O)Nc2cccc(C(C)=O)c2)c1 (centres undefined)	inactive	
CC(C)Cc1ccc(C(=O)O)s1	inconclusive: 28.2 µM [inhibitor, single point]	
COc1ccccc1-n1c(-c2ccco2)n[nH]c1=S	inactive	
CCc1ccc([C@@H]2CC=C(C(=O)O)[C@H](c3ccc(Cl)cc3)N2S(=O)(=O)c2ccc(C)cc2)cc1	inconclusive: 39.8 µM [inhibitor, partial curve, poor fit]	

Arranged by SMILES length (ascending): part of the list above
Structure (SMILES)	Potency	activity change, negative = inhibition
COc1ccc2cc(Br)ccc2c1CC(=O)NC(C)C	inactive	
O=C1N[C@@H](Cc2ccccc2)C(=O)N2CCC[C@@H]12	inactive	
C/C(=N\NC(=O)c1ccn(C)n1)c1cccc(NC(=O)c2ccc(C)s2)c1	inactive	

Going on with the list:

Structure (SMILES)	Potency	activity change, negative = inhibition
Nn1c(-c2cccs2)nc2sc3c(c2c1=O)CCCC3	inconclusive: 44.7 µM [inhibitor, partial curve, poor fit]	
O=C(CCC1CCCN(C(=O)CCC(F)(F)F)C1)NCc1ccc(F)c(F)c1 (centres undefined)	inactive	
Cc1ccc2c(=O)cc(C(=O)Nc3ccc(S(N)(=O)=O)cc3)oc2c1	inactive	
Cc1c(CCC(=O)O)c(=O)n2c([nH]c3ccccc32)c1C#N	inconclusive: 35.5 µM [inhibitor, partial curve, poor fit]	
CC(C)(C)NC(=O)C(c1ccccc1)n1c(-c2ccccc2Br)nc2ccccc21 (centres undefined)	inconclusive: 50.1 µM [inhibitor, partial curve, poor fit]	
Cc1ccc(Nc2nc(NC3CCCC3)nc3c2cnn3C)cc1C	inconclusive: 50.1 µM [inhibitor, partial curve, poor fit]	
CCCc1cc(=O)oc2c(C)c(OCC(=O)c3ccc(N4CCCC4)cc3)ccc12	inactive	
CC(=O)Nc1ccc(-c2cc(C(=O)O)c3ccc(C)cc3n2)cc1	inconclusive: 70.8 µM [inhibitor, partial curve, poor fit]	
COc1ccc(CNc2nc(-c3ccccc3)nn2C(=O)c2cccs2)cc1	inconclusive: 1.78 µM [inhibitor, full curve, poor fit]	
O=C(N/N=C/c1ccc(OC(=O)c2cccs2)cc1)c1ccc(F)cc1	inactive	
Cc1ccc(C(=O)NCC(=O)N(C)Cc2cccc(F)c2)s1	inconclusive: 35.5 µM [inhibitor, partial curve, poor fit]	
CC(=O)c1ccc(OCc2cc(C(=O)NC(C)CCn3cccn3)no2)cc1 (centres undefined)	inconclusive: 63.1 µM [inhibitor, single point]	
COc1ccc2cc3c(N)nn(C(=O)Cc4ccccc4OC)c3nc2c1	inactive	
O=C(Nc1ccc(Oc2ccccc2)cc1)c1ccc(F)c(S(=O)(=O)N2CCN(c3cccc(Cl)c3)CC2)c1		inconclusive: -30.5% [inhibitor]
CCCCOc1ccc(-c2nnc(-c3ccco3)o2)cc1	inconclusive: 50.1 µM [inhibitor, partial curve, poor fit]	
CC(/C=C1\SC(=S)N(NC(=O)c2ccncc2)C1=O)=C\c1ccccc1	inconclusive: 35.5 µM [inhibitor, single point]	
COc1ccc(CCC(=O)O)c(O)c1	inactive	
S=c1[nH]nc(-c2cccnc2)n1/N=C/C=C/c1ccco1	inconclusive: 28.2 µM [inhibitor, partial curve, poor fit]	
COc1cccc(-c2c(NC(=O)c3cccc([N+](=O)[O-])c3)oc3ccc(Cl)cc3c2=O)c1	inactive	
O=[N+]([O-])c1cc(S(=O)(=O)N2CCOCC2)ccc1N1CCCC1	inactive	
CC#CCN1c2ccccc2[C@]23C[C@@H](C(=O)OC)N(C(=O)c4cc(C)oc4C)C2=NC(C(=O)OC)=C(C(=O)OC)[C@H]13	inactive	
CCc1ccc2[nH]c(=O)c(CN(Cc3ccco3)C(=S)NCC3CCCO3)cc2c1 (centres undefined)	inconclusive: 56.2 µM [inhibitor, partial curve, poor fit]	
CCOc1ccc2[nH]c(=O)c(C(c3nnnn3CC3CCCO3)N3CCc4ccccc4C3)cc2c1 (centres undefined)	inactive	
